Among the data in US7718611B2 (priority 2004, dated 2010) are step yield and cyclisation yield values, retold here.

The nature of this series: general procedure: solution-phase peptide synthesis; HATU / N-methylmorpholine. The conditions noted are these: trifluoroacetate; for step yield: late stage modification step; for cyclisation yield: cyclisation step.

On to “N^2-(Benzyloxycarbonyl)-N^3-{N^2.1-tert-butoxycarbonyl[(3R)-3-hydroxy-L-leucyl]-L-leucyl-D-arginyl-L-isoleucyl-L-allothreonyl-glycyl-[(3S)-3-hydroxy-L-asparaginyl]-L-seryl}-(3R)-3-amino-L-phenylalanine trifluoroacetate”, for which the step yield is reported as 77%.
The same measure, in the same setting: as for “N^2-(Benzyloxycarbonyl)-N^3-{[(3R)-3-hydroxy-L-leucyl]-L-leucyl-D-arginyl-L-isoleucyl-L-allothreonyl-glycyl-[(3S)-3-hydroxy-L-asparaginyl]-L-seryl}-(3R)-3-amino-L-phenylalanine pentafluorophenyl ester bishydrochloride”, the figure is 96%.
With “N^2.1-(Benzyloxycarbonyl)-[(3R-3-amino-L-phenylalanyl)]-[(3R)-3-hydroxy-L-leucyl]-L-leucyl-D-arginyl-L-isoleucyl-L-allothreonyl-glycyl-[(3S)-3-hydroxy-L-asparaginyl]-L-serine C^1.9—N^3.1-lactam trifluoroacetate”, the cyclisation yield is given as 33% (run 1) and 70% (run 2).
“N^2.1-tert-Butoxycarbonyl[(3R)-3-hydroxy-L-leucyl]-L-leucyl-D-arginyl-L-isoleucyl-L-allothreonyl-glycyl-[(3S)-3-hydroxy-L-asparaginyl]-L-serine trifluoroacetate” came in with a step yield of 70%.
